The text below walks through data of article doi:10.1101/2022.06.06.494580.

No constants are given. Whether binding was seen depends on the method and setting. Some entries that bind do so weakly or less than the wild type. Where a sequence is shown, tags or fusion partners need not be part of it.

In the assay the target is CNOT7, yeast two-hybrid fusion (human), Q9UIV1. In words: two-hybrid. Particulars: remark: other sources report otherwise.

B1: BTG1, yeast two-hybrid fusion, P62324 1-171 (protein)
chain: MHPFYTRAATMIGEIAAAVSFISKFLRTKGLTSERQLQTFSQSLQELLAEHYKHHWFPEKPCKGSGYRCIRINHKMDPLIGQAAQRIGLSSQELFRLLPSELTLWVDPYEVSYRIGEDGSICVLYEASPAGGSTQNSTNVQMVDSRISCKEELLLGRTSPSKNYNMMTVSG
With B1, the binding result is on record as “binds”.
